Measured values published in the M2OR odorant receptor database.
Positions count from the first letter of the chain named. Only a part is listed here, and it is no random draw. The calls were merged from several studies; some rest on single wells. This is one part of the list.

Chains of the proteins cited; added tags and fusions are not shown. A line that says so, or that is headed by a name, gives the form on record, which may keep a tag or linker.
O52E1, as listed by the source: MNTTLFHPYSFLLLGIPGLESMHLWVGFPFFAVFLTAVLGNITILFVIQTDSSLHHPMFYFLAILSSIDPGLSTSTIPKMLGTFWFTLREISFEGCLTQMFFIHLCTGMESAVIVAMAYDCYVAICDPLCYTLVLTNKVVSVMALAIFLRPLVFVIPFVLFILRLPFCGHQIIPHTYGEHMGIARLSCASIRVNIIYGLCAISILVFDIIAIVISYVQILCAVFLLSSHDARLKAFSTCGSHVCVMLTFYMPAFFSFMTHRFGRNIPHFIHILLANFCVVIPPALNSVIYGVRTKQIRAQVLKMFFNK
O52E8, as listed by the source: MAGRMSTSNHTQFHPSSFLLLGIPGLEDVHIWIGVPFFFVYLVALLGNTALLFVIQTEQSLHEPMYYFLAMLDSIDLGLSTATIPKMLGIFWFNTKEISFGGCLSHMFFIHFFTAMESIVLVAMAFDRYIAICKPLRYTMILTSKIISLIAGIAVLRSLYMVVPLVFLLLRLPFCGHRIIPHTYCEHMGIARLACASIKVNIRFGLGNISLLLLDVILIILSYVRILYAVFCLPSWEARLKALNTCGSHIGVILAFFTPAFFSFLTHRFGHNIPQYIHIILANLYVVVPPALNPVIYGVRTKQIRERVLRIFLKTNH
O52E4, as listed by the source: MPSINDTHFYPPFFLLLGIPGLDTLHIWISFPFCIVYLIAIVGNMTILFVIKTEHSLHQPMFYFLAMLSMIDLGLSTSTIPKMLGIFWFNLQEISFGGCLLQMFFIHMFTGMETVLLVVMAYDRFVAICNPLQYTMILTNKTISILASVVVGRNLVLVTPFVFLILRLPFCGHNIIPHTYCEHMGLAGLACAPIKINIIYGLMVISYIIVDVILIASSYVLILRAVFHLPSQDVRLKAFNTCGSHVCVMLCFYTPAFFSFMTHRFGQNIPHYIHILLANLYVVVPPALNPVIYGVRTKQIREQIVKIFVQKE
O52E5, as listed by the source: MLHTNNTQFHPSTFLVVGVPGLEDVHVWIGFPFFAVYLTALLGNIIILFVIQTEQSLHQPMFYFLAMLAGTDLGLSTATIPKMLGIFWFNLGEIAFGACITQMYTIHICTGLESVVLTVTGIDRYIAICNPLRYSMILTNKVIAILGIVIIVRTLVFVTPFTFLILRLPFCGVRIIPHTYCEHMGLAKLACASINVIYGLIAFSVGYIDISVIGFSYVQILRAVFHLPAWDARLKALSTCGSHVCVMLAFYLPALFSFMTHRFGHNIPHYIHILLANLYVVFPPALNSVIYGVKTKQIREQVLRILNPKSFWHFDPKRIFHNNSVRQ
O51L1, as listed by the source: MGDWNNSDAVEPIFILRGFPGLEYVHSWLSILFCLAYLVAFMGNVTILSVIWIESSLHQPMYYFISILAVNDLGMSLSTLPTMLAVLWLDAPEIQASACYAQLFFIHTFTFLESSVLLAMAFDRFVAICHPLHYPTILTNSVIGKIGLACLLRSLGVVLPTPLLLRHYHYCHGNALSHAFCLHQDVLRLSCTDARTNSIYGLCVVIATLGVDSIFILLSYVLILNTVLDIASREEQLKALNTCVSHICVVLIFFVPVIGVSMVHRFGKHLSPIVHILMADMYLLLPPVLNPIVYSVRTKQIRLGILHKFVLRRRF
O51V1, as listed by the source: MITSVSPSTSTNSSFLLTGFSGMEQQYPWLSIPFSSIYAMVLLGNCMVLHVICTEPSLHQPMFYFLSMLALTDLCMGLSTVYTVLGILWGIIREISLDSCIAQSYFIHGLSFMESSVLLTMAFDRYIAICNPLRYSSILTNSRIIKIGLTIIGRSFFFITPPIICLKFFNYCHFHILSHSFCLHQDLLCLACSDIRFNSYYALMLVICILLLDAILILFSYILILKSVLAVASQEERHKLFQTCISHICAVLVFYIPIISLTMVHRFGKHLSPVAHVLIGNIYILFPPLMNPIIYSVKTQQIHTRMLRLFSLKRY
O52E2, as listed by the source: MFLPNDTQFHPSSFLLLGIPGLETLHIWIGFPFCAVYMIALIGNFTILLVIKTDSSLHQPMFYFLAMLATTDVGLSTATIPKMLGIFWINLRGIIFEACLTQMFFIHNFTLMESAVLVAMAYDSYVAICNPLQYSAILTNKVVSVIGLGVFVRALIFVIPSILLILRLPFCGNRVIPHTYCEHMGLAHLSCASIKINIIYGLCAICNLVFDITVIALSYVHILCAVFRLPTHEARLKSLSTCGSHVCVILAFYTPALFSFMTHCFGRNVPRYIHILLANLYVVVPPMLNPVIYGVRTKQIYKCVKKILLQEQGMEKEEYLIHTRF

Experiments:
Conditions in all cases: stereoisomer not certain
O51G1 = test system: T1, O51G1
T1 sequence (whole entry): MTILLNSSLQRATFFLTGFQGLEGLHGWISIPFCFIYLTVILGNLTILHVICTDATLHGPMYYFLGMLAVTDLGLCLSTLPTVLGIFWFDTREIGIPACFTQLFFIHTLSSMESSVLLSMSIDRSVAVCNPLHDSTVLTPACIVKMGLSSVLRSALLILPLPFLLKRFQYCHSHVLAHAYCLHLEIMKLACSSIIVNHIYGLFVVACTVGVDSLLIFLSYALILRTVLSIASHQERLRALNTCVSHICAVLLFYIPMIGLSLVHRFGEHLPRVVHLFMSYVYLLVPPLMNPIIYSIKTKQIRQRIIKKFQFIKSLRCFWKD
Outline: (§1)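 Transient luciferase assays in mammalian cell lines were common, though methods varied by source. The values come from published papers and their supplementary material, with extra details from the original authors when needed. Responsive refers to a measured signal the original authors judged statistically different from baseline, and non-responsive (inactive) to the remainder.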

O51G2 = test system: T2, O51G2
T2 sequence (whole entry): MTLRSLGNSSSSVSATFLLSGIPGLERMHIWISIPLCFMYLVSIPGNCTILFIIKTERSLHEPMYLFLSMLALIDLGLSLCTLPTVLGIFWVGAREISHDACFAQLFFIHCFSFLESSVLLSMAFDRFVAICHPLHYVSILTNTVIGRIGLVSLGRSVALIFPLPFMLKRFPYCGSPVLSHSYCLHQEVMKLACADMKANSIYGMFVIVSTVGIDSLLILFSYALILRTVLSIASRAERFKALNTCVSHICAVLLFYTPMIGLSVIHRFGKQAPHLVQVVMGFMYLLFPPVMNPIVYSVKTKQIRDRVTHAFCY
Outline: as §1

O51J1 = test system: T3, O51J1
T3 sequence (whole entry): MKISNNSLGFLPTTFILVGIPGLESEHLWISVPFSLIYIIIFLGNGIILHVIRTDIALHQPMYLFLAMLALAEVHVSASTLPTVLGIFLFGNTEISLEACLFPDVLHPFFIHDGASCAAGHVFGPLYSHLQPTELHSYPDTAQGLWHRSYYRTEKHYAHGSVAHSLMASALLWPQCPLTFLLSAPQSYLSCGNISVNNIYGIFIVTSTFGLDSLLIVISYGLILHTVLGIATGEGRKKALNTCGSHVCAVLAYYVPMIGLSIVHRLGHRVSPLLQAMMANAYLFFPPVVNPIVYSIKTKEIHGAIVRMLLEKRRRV
Outline: as §1

O51L1 [1] = test system: T4, O51L1
T4 sequence (whole entry): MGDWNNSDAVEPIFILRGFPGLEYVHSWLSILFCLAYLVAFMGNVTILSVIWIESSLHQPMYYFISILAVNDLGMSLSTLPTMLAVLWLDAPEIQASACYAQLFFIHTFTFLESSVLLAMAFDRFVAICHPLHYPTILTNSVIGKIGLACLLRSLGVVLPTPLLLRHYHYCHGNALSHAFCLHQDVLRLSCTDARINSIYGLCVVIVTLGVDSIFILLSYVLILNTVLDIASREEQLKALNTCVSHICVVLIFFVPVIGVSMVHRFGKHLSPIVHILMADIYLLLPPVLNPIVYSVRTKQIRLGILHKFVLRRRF
Outline: as §1

O51L1 [2] = test system: T5, O51L1; remark: listed apart in the source
T5 sequence (whole entry): T4 sequence (whole entry) with I196T, V207A, I281M
Outline: as §1

O51M1 = test system: T6, O51M1
T6 sequence (whole entry): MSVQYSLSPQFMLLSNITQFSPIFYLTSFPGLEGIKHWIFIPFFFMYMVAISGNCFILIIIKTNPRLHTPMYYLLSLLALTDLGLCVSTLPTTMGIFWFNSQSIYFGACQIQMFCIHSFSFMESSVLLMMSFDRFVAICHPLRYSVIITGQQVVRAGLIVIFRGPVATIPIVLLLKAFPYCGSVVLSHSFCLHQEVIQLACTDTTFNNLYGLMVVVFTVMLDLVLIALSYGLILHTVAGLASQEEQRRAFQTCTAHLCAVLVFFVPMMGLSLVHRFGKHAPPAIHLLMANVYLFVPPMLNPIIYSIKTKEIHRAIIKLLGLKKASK
Outline: as §1

O51Q1 = test system: T7, O51Q1
T7 sequence (whole entry): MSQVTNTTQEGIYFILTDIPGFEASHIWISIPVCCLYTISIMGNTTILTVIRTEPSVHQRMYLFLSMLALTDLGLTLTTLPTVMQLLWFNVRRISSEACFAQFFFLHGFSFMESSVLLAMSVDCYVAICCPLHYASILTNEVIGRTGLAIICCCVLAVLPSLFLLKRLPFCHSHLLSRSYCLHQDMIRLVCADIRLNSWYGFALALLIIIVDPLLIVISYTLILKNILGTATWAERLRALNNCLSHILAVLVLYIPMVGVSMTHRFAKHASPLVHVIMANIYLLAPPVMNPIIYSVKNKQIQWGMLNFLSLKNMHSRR
Outline: as §1

O51T1 = test system: T8, O51T1
T8 sequence (whole entry): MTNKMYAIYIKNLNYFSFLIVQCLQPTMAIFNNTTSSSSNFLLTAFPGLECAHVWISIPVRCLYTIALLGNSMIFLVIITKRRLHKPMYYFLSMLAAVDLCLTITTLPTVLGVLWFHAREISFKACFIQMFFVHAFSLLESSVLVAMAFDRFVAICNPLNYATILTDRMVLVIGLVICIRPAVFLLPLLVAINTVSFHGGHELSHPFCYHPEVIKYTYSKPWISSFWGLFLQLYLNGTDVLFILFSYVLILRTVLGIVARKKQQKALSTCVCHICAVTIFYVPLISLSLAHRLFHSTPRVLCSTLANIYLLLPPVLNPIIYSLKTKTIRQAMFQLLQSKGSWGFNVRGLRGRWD
Outline: as §1

O51V1 [3] = test system: T9, O51V1
T9 sequence (whole entry): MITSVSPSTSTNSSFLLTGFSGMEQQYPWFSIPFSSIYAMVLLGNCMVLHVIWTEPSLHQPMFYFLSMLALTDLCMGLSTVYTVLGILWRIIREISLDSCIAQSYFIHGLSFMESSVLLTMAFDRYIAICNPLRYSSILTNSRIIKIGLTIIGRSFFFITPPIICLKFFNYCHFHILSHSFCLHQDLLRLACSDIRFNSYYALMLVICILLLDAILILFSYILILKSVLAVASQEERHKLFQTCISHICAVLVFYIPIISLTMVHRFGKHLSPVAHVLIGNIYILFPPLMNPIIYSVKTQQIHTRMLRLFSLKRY
Outline: as §1

O51V1 [4] = test system: T10, O51V1; remark: listed apart in the source
T10 sequence (whole entry): T9 sequence (whole entry) with F30L, W53C, R90G, R189C
Outline: as §1

O52A1 = test system: T11, O52A1
T11 sequence (whole entry): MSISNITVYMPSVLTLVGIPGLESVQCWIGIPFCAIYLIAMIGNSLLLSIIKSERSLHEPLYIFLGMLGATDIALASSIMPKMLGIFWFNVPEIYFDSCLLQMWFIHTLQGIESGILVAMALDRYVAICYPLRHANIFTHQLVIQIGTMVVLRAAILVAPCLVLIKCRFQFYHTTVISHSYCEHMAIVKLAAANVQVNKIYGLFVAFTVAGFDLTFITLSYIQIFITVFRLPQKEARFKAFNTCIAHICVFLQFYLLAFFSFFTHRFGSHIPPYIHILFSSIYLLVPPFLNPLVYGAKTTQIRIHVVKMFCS
Outline: as §1

O52B2 = test system: T12, O52B2
T12 sequence (whole entry): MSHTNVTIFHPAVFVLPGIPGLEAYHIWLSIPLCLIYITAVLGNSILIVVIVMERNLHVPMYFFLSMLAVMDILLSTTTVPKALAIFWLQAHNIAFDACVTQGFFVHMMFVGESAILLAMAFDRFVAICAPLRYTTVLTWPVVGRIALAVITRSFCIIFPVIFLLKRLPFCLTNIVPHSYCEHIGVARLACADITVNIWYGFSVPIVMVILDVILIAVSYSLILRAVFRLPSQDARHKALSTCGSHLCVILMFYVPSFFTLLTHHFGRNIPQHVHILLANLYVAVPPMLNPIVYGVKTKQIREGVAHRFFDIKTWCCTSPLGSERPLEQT
Outline: as §1

O52B6 = test system: T13, O52B6
T13 sequence (whole entry): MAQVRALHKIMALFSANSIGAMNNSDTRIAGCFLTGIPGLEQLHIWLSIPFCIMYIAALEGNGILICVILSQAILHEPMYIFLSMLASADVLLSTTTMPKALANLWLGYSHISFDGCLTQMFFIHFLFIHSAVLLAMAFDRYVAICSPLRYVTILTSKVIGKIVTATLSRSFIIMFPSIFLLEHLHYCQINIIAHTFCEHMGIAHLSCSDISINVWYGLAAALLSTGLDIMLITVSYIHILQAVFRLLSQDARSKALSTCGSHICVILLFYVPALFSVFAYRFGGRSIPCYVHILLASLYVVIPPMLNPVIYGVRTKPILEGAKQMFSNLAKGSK
Outline: as §1

O52E1 = test system: O52E1
Outline: as §1

O52E2 = test system: O52E2
Outline: as §1

O52E4 = test system: O52E4
Outline: as §1

O52E5 = test system: O52E5
Outline: as §1

O52E8 = test system: O52E8
Outline: as §1

O52I2 = test system: T14, O52I2
T14 sequence (whole entry): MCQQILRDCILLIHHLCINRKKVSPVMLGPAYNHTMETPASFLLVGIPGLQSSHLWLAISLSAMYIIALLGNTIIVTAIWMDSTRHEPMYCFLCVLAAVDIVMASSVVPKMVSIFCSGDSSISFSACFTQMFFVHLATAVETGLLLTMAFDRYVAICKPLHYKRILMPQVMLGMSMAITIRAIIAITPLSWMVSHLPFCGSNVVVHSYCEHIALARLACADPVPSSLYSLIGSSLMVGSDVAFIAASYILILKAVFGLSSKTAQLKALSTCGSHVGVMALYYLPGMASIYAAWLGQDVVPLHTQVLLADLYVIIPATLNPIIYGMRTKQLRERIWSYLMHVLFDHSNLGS
Outline: as §1
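Further: active if original authors judged signal statistically different from baseline.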

Row | SMILES | odorant receptor agonist call (O51G1) | odorant receptor agonist call (O51G2) | odorant receptor agonist call (O51J1) | odorant receptor agonist call (O51L1 [1]) | odorant receptor agonist call (O51L1 [2]) | odorant receptor agonist call (O51M1) | odorant receptor agonist call (O51Q1) | odorant receptor agonist call (O51T1) | odorant receptor agonist call (O51V1 [3]) | odorant receptor agonist call (O51V1 [4]) | odorant receptor agonist call (O52A1) | odorant receptor agonist call (O52B2) | odorant receptor agonist call (O52B6) | odorant receptor agonist call (O52E1) | odorant receptor agonist call (O52E2) | odorant receptor agonist call (O52E4) | odorant receptor agonist call (O52E5) | odorant receptor agonist call (O52E8) | odorant receptor agonist call (O52I2)
1 | CC1CCC(C(C)C)C(O)C1 (centres undefined) | inactive | inactive | inactive | active | active | inactive | inactive | inactive | inactive | inactive | inactive | inactive | inactive | inactive | inactive | inactive | inactive | inactive | inactive
2 | CC(C)=CCCC(C)=CC=O | inactive | inactive | inactive | inactive | inactive | active | inactive | inactive | inactive | inactive | inactive | inactive | inactive | inactive | inactive | inactive | inactive | inactive | inactive
3 | CC(=O)OC(C)(C)C1CC=C(C)CC1 (centres undefined) | inactive | inactive | inactive | inactive | inactive | inactive | inactive | inactive | inactive | active | inactive | inactive | inactive | inactive | inactive | inactive | inactive | inactive | inactive
4 | CCC=CCCO | inactive | inactive | inactive | inactive | inactive | inactive | inactive | inactive | inactive | inactive | inactive | inactive | inactive | inactive | inactive | inactive | inactive | inactive | inactive
5 | CC(=O)OC1CC2CCC1(C)C2(C)C (centres undefined) | inactive | inactive | inactive | inactive | inactive | inactive | inactive | inactive | inactive | inactive | inactive | inactive | inactive | inactive | inactive | inactive | inactive | inactive | inactive
6 | CC12CCC(CC1)C(C)(C)O2 | inactive | inactive | inactive | inactive | inactive | inactive | inactive | inactive | inactive | inactive | inactive | inactive | inactive | inactive | inactive | inactive | inactive | inactive | inactive
